Experimental data: PubChem BioAssay AID652243 (Drosophila RNAi Screening Center, 2013)

Aim: 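Knock-downs that decrease or increase androgen receptor reporter signal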 (primary screen)
Cell system: Drosophila S2R+ cells
Reagents: long dsRNA against Drosophila genes
Time to read-out: 72 h (48 h, then 24 h hormone)
Treatment: synthetic androgen R1881 at 10 nM for 24 h
Detection: 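Firefly light from an androgen-responsive reporter and Renilla control light per well, raw and unnormalised, for each of two replicates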
Direction: firefly reporter light: higher = more light from androgen-responsive reporter; Renilla control light: higher = more constitutive control signal (cell number, transfection)
Hit rule: 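Hit when the log firefly-to-Renilla ratio dropped or increased by a fixed fold versus the mean of GFP or LacZ controls across duplicate plates; lowering cut given as 1.5 and as 3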
Meaning of the calls: active = hit: reporter lowered or raised; inactive = no hit
The deposit covers about 24,000 reagents; shown is a random part of those with a known target gene and a result. In the full data, 246 (1%) were called active. 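Plates not normalised; calls are printed but the firefly/Renilla ratio behind them is not deposited; fold cut for lowering reported inconsistently.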 The raw values are shown without normalisation. No sequences are given here. Not given: the amount of reagent.

firefly reporter light, replicate 1	firefly reporter light, replicate 2	Renilla control light, replicate 1	Renilla control light, replicate 2	Call	target	DRSC id
4.53e5	3.58e5	3.06e6	2.87e6	inactive	CG5568	DRSC10518
6.06e5	9.50e5	1.06e6	1.79e6	inactive	CG5568	DRSC22816
5.28e5	9.52e5	5.82e5	7.14e5	inactive	CG5568	DRSC24887
51911	53451	9.51e5	9.51e5	inactive	CG8388	DRSC07157
6.82e5	8.65e5	1.69e6	1.97e6	inactive	ND-51	DRSC03145
1.59e5	1.12e5	2.55e5	2.48e5	inactive	CG31088	DRSC13123
6.31e5	5.70e5	7.62e5	9.43e5	inactive	CG31088	DRSC25600
1.14e5	1.14e5	1.34e6	2.42e6	inactive	Trs33	DRSC15990
1.25e5	1.09e5	1.79e6	1.97e6	inactive	CG3437	DRSC10366
6.30e5	7.82e5	1.13e6	1.25e6	inactive	CG3437	DRSC24768
1.49e5	1.26e5	7.90e5	7.04e5	inactive	lic	DRSC20347
8.43e5	8.51e5	1.22e6	1.67e6	inactive	lic	DRSC36705

Targets listed so far whose gene name starts with L or l (2):
firefly reporter light, replicate 1	firefly reporter light, replicate 2	Renilla control light, replicate 1	Renilla control light, replicate 2	Call	target	DRSC id
1.49e5	1.26e5	7.90e5	7.04e5	inactive	lic	DRSC20347
8.43e5	8.51e5	1.22e6	1.67e6	inactive	lic	DRSC36705

The listing continues:
firefly reporter light, replicate 1	firefly reporter light, replicate 2	Renilla control light, replicate 1	Renilla control light, replicate 2	Call	target	DRSC id
1.03e5	99974	1.65e6	1.65e6	inactive	Nox	DRSC06596
42554	52629	7.10e5	7.10e5	inactive	Nox	DRSC06857
2.63e5	1.78e5	6.22e5	7.45e5	inactive	Nox	DRSC27816
3.93e5	3.06e5	1.74e6	1.72e6	inactive	Nox	DRSC29856
66171	50670	9.58e5	1.00e6	inactive	CG10029	DRSC12498
2.51e5	1.93e5	1.39e6	1.28e6	inactive	btl	DRSC11331
5.60e5	8.60e5	1.72e6	2.02e6	inactive	btl	DRSC36653
				inactive	btl	DRSC36654
1.15e5	1.25e5	1.31e6	1.80e6	inactive	alpha-Man-IIa	DRSC15393
3.54e5	3.20e5	2.21e6	2.45e6	inactive	CtIP	DRSC11785
6.66e5	7.44e5	1.03e6	1.18e6	inactive	CtIP	DRSC29281
7.92e5	7.18e5	6.42e5	5.68e5	inactive	uex	DRSC20786
6.87e5	4.61e5	7.17e5	8.41e5	inactive	uex	DRSC27422
